A short description of this experiment: qHTS Assay for Lipid Storage Modulators in Drosophila S3 Cells.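 For cell number change: cells counted by Cell Tracker Red CMTPX staining in the red channel.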 As to conditions: BODIPY lipid droplet fluorescence, 18-24 h; for cell number change: measured here: cell count max response, cells fed with added oleic acid. The gist of the method:
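Drosophila S3 cells loaded with oleic acid (400 uM, as added) and compounds at several concentrations; lipid droplets imaged by 488-nm laser-scanning cytometry, 500–530 nm intensity and object ratio to cell channel. Percent activity normalized to 20 uM Triacsin C.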
(In qHTS, concentration-response curves come from the screen itself.)

Where [1] appears, read: measured here: lipid fluorescence (Fed channel) AC50, cells fed with added oleic acid.
[2] abbreviates: measured here: cell number channel AC50, cells fed with added oleic acid.

SMILES strings stand for the structures. Some of the results follow. Further columns of the screen follow, without active or inactive calls. Most of these compounds were active or inconclusive in the main read-out, so they are no random draw. The note in brackets gives the kind of curve behind each potency; many fits are weak.

One may read the AC50 as the midpoint of the concentration-response curve, whichever way the signal moves. Read a low AC50 as greater potency. For the molecule `CCCNS(=O)(=O)c1ccc(OCC(=O)N2CCN(Cc3ccccc3)CC2)cc1`, the cell number change is -18.3%. The AC50 under setting [1] was 5170 nM [rising, full curve].
Consider `CCc1cc(=O)oc2c(C)c(OCC(=O)N3C[C@H]4C[C@@H](C3)c3cccc(=O)n3C4)ccc12`, for which the cell number change is 23.3%. Further, the AC50 under setting [1] is 1300 nM [rising, partial curve].
With `O=C(c1ccc(C(F)(F)F)cc1)C1CCCN(Cc2ccncc2)C1` (centres undefined), the cell number change was -31.7%. The AC50 under setting [2] is 16400 nM [falling, single point]. The AC50 under setting [1] was 16400 nM [falling, partial curve].
As to `O=C1NC(=O)C(=Cc2ccccc2OCCOc2ccc([N+](=O)[O-])cc2)C(=O)N1`, the cell number change is -7.33%. Under setting [2], the AC50 is 731 nM [rising, single point].
Take `O=C(NC(=S)N1C[C@H]2C[C@H](C1)c1cccc(=O)n1C2)c1ccc(Cl)cc1`: the cell number change was 21.7%.
As for `CCOC(=O)c1c(/N=C/C2C(=O)NC(=S)NC2=O)sc2c1CCC2`, the cell number change was -2.99%. For the same molecule, the AC50 under setting [2] was 411 nM [falling, single point].
Consider `CC1(C)C2SCC(=O)N2CCN1CC(=O)NN` (centres undefined), for which the cell number change is -10.5%. Besides, the AC50 under setting [1] was 103 nM [falling, full curve, poor fit].
As for `COC(=O)C1=C(c2ccc(-c3ccccc3)c(F)c2)C[C@@H]2CC[C@H]1N2C(=O)NCCNC(C)=O`, the cell number change stood at 2.65%. The AC50 under setting [1] is 4.61 nM [rising, full curve, poor fit].
Regarding `O=c1c2ccccc2ccc2ccc(P(=O)(O)O)cc12`, the AC50 under setting [1] is 1160 nM [rising, single point].
With `CC(N)Cc1c[nH]c2cc3c(cc12)OCCO3` (centres undefined), the AC50 under setting [2] is 3660 nM [falling, single point].
Take `COC(=O)C1=C(c2ccc(F)cc2F)C[C@@H]2CC[C@H]1N2C(=O)NCCO`: the cell number change is 1.56%. The AC50 under setting [1] is 6510 nM [rising, single point].
Consider `O=C(c1cc2nc(-c3ccccc3)cc(-c3ccccc3)n2n1)N1CCC2(CC1)OCCO2`, for which the AC50 under setting [1] is 411 nM [rising, partial curve, poor fit].
On to `CCN1CCN(c2ccc(N)cc2C)CC1`, for which the cell number change was 92.1%. For the same molecule, under setting [2], the AC50 is 25900 nM [rising, partial curve].
Take `C=CCOC(=O)C1=C(C)OC(N)=C(C#N)C12C(=O)N(CN1CCOCC1)c1ccccc12` (centres undefined): the cell number change is -5.18%.
Turning to `N/C(=N/[N+](=O)[O-])N1CCN(C(=O)Oc2ccc([N+](=O)[O-])cc2)CC1`, the cell number change is -20.4%. Further, the AC50 under setting [1] was 411 nM [falling, full curve].
For the molecule `COc1ccc2c(c1OC)C(=O)OC2c1c(O)n(C2CCCCC2)c(=O)[nH]c1=O` (centres undefined), the cell number change is -2.56%. In addition, the AC50 under setting [2] is 5.17 nM [falling, full curve, poor fit]. The AC50 under setting [1] is 291 nM [falling, full curve, poor fit].

These data come from PubChem BioAssay AID2685 (National Center for Advancing Translational Sciences (NCATS), 2010).
